Test results as given in paper PMC11425881.
Read-outs that look alike come from different tables or passages of the source. These are yes or no findings as the source states them, for the method shown. Binding seen in cells or lysates may run through a third protein. Some entries that bind do so weakly or less than the wild type. Sequences can lack the tags named with a protein. Each block holds one molecule with its values, some of them ahead of it.

Sequences of proteins named here, by UniProt entry; tags and fusion partners are left off.
UniProt Q9UNE7: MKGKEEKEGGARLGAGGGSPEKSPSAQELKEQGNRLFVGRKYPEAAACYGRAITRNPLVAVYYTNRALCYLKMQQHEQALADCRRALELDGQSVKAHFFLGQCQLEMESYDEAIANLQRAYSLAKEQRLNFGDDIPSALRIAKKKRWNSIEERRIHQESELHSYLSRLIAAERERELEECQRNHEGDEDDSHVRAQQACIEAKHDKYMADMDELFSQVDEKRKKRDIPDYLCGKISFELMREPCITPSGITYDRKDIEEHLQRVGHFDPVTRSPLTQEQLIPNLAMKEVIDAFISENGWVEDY
UniProt P27361: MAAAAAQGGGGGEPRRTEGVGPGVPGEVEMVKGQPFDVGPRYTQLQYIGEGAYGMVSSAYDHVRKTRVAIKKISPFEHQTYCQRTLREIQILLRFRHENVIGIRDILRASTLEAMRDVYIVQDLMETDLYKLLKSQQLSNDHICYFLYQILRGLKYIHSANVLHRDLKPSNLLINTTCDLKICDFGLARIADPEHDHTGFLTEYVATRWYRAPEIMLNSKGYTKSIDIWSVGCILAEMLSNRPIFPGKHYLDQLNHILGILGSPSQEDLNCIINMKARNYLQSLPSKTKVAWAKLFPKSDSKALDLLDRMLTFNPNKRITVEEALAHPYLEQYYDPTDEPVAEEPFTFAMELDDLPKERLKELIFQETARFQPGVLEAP

How the values were obtained:
[1] = molecular target: T1, Myc-tagged PPM1α, expressed in HEK293 / HEK293T cells (human (cDNA of HepG2 cells)) (UniProt P35813); test: co-IP; transfected HEK293 / HEK293T cells, 36 h after transfection; RIPA lysate, antibody overnight at 4 °C, protein A/G agarose 3 h, washed with PBS, immunoblot
T1 sequence: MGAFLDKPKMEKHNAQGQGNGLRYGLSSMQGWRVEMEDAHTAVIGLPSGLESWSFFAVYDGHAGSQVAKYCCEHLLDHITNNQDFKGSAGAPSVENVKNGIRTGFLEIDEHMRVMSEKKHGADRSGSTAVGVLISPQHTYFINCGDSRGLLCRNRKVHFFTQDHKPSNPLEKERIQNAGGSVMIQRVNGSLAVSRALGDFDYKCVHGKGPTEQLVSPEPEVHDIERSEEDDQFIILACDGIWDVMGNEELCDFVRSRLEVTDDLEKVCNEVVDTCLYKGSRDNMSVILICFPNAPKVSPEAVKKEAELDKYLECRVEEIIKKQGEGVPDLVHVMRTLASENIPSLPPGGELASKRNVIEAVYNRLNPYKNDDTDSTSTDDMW

[2] = molecular target: HA-tagged STUB1, expressed in HepG2 cells (human (cDNA of HepG2 cells)) (UniProt Q9UNE7); test: co-IP; transfected HepG2 cells, 36 h after transfection; RIPA lysate, antibody (anti-Flag or anti-HA) overnight at 4 °C, protein A/G agarose 3 h, washed with PBS, immunoblot
[3] = molecular target: T2, Flag-tagged PAQR9 (progesterone and adiponectin receptor 9), expressed in HepG2 cells (UniProt Q6ZVX9); test: as above
T2 sequence: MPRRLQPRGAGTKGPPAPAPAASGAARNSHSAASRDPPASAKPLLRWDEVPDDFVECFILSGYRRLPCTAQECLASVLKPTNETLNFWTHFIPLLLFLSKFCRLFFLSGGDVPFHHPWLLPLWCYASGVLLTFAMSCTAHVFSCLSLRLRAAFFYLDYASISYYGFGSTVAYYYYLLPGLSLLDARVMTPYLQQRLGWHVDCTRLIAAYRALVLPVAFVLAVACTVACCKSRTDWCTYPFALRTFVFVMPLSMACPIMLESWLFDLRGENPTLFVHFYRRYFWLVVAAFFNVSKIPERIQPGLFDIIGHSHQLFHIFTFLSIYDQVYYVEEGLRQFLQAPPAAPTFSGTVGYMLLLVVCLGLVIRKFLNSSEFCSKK

[4] = molecular target: T1, Myc-tagged PPM1α, expressed in HEK293 / HEK293T cells (human (cDNA of HepG2 cells)); test: co-IP; transfected HEK293 / HEK293T cells, 36 h after transfection; RIPA lysate, antibody overnight at 4 °C, protein A/G agarose 3 h, washed with PBS, immunoblot; remark: listed apart in the source

B1: Myc-tagged PPM1α, expressed in HepG2 cells (enzyme, UniProt P35813 1-382)
chain: MGAFLDKPKMEKHNAQGQGNGLRYGLSSMQGWRVEMEDAHTAVIGLPSGLESWSFFAVYDGHAGSQVAKYCCEHLLDHITNNQDFKGSAGAPSVENVKNGIRTGFLEIDEHMRVMSEKKHGADRSGSTAVGVLISPQHTYFINCGDSRGLLCRNRKVHFFTQDHKPSNPLEKERIQNAGGSVMIQRVNGSLAVSRALGDFDYKCVHGKGPTEQLVSPEPEVHDIERSEEDDQFIILACDGIWDVMGNEELCDFVRSRLEVTDDLEKVCNEVVDTCLYKGSRDNMSVILICFPNAPKVSPEAVKKEAELDKYLECRVEEIIKKQGEGVPDLVHVMRTLASENIPSLPPGGELASKRNVIEAVYNRLNPYKNDDTDSTSTDDMW
- binding [2]: binds

B3: Flag-tagged PAQR9 (progesterone and adiponectin receptor 9), expressed in HepG2 cells (protein, UniProt Q6ZVX9 1-377)
chain: MPRRLQPRGAGTKGPPAPAPAASGAARNSHSAASRDPPASAKPLLRWDEVPDDFVECFILSGYRRLPCTAQECLASVLKPTNETLNFWTHFIPLLLFLSKFCRLFFLSGGDVPFHHPWLLPLWCYASGVLLTFAMSCTAHVFSCLSLRLRAAFFYLDYASISYYGFGSTVAYYYYLLPGLSLLDARVMTPYLQQRLGWHVDCTRLIAAYRALVLPVAFVLAVACTVACCKSRTDWCTYPFALRTFVFVMPLSMACPIMLESWLFDLRGENPTLFVHFYRRYFWLVVAAFFNVSKIPERIQPGLFDIIGHSHQLFHIFTFLSIYDQVYYVEEGLRQFLQAPPAAPTFSGTVGYMLLLVVCLGLVIRKFLNSSEFCSKK
- binding [2]: binds

Next, values leading:

- binding [1]: binds
Molecule: ERK1, endogenous in HEK293T cells (from UniProt P27361 1-379) (enzyme)

- binding [3]: binds
B2: endogenous PPM1α (protein phosphatase, Mg2+/Mn2+ dependent 1) of HepG2 cells (enzyme, UniProt P35813 1-382)
chain: MGAFLDKPKMEKHNAQGQGNGLRYGLSSMQGWRVEMEDAHTAVIGLPSGLESWSFFAVYDGHAGSQVAKYCCEHLLDHITNNQDFKGSAGAPSVENVKNGIRTGFLEIDEHMRVMSEKKHGADRSGSTAVGVLISPQHTYFINCGDSRGLLCRNRKVHFFTQDHKPSNPLEKERIQNAGGSVMIQRVNGSLAVSRALGDFDYKCVHGKGPTEQLVSPEPEVHDIERSEEDDQFIILACDGIWDVMGNEELCDFVRSRLEVTDDLEKVCNEVVDTCLYKGSRDNMSVILICFPNAPKVSPEAVKKEAELDKYLECRVEEIIKKQGEGVPDLVHVMRTLASENIPSLPPGGELASKRNVIEAVYNRLNPYKNDDTDSTSTDDMW

- binding [4]: binds
B4: Flag-tagged PAQR9 (progesterone and adiponectin receptor 9), expressed in HEK293 cells (protein, UniProt Q6ZVX9 1-377)
chain: MPRRLQPRGAGTKGPPAPAPAASGAARNSHSAASRDPPASAKPLLRWDEVPDDFVECFILSGYRRLPCTAQECLASVLKPTNETLNFWTHFIPLLLFLSKFCRLFFLSGGDVPFHHPWLLPLWCYASGVLLTFAMSCTAHVFSCLSLRLRAAFFYLDYASISYYGFGSTVAYYYYLLPGLSLLDARVMTPYLQQRLGWHVDCTRLIAAYRALVLPVAFVLAVACTVACCKSRTDWCTYPFALRTFVFVMPLSMACPIMLESWLFDLRGENPTLFVHFYRRYFWLVVAAFFNVSKIPERIQPGLFDIIGHSHQLFHIFTFLSIYDQVYYVEEGLRQFLQAPPAAPTFSGTVGYMLLLVVCLGLVIRKFLNSSEFCSKK
